Test results reported in ChEMBL document CHEMBL3351903, “A potent HDAC inhibitor, 1-alaninechlamydocin, from a Tolypocladium sp. induces G2/M cell cycle arrest and apoptosis in MIA PaCa-2 cells” (J Nat Prod, 2014).

Key:
[1] = Antiproliferative activity against human MIAPaCa2 cells after 48 hrs by MTT assay; assay type: functional; details: MIA PaCa-2, 48 h
Procedure, shortened: (§1)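 Cells held in RPMI with 5% FetalClone III and penicillin/streptomycin (50 U/mL, 50 μg/mL); hTERT-HPNE also given 10 ng/mL recombinant human EGF; used within 3 months of thaw. 48 h compound exposure, DMSO ≤1% final, then MTT. Growth normalized to vehicle (100%) and to density at drug addition (0%); GI50 from nonlinear regression of triplicate wells.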

[2] = Antiproliferative activity against human PANC1 cells after 48 hrs by MTT assay; assay type: functional; details: PANC-1, 48 h; procedure, shortened: as §1

O=C(CCCCCCC(=O)Nc1ccccc1)NO [VORINOSTAT]
TGI [1]: 2350 nM
TGI [2]: 3260 nM
